In brackets after ≈: the same amount, converted by molar mass. Several values for one entry are separate records, joined by “and”; a condition that tells them apart may be missing. Identical values can stand only once. The list shows a part of the results. The main result of the screen is listed elsewhere. These columns were measured beside it and carry no call.

The nature of the assay: Mycobacterium tuberculosis H37Rv growth inhibition, confirmatory dose response, cytotoxicity (AID 1332).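 On CC50: Vero cells exposed to compounds for 72 hours.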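 On IC50: bacteria incubated 7 days before adding Alamar blue readout reagent.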 To be noted: M. tuberculosis H37Rv growth inhibition; CC50: measured here: Vero cell cytotoxicity; IC50: measured here: IC50 H37Rv replicates.
A word on the IC50: it is the concentration that inhibits the measured activity by half. A higher IC50 goes with a need for much substance. For `CCCCC(CC)CN1CN(CC(CC)CCCC)CC(C)(N)C1` (centres undefined), the half-maximal inhibitory concentration (IC50) was determined as 4.78 µg/mL (≈ 14.1 µM). Same read-out and setting: the result for `NC(N)=NCc1cccc(I)c1` reads > 20 µg/mL.

`CO[C@@H]1[C@@H](OC(N)=O)[C@@H](O)C(Oc2ccc3c(O)c(NC(=O)c4ccc(O)c(CC=C(C)C)c4)c(=O)oc3c2C)OC1(C)C` (some centres undefined) gave a 50% inhibitory concentration (IC50) of 1.46 µg/mL (≈ 2.39 µM). In the case of `CCN(CC)CCOC(=O)C(c1ccccc1)C1CCCCC1` (centres undefined), the IC50 is > 20 µg/mL. As to `COc1cc(Cc2cnc(N)nc2N)cc(OC)c1OC`, the IC50 was > 20 µg/mL. Same read-out and setting: the result for `CN(C)/N=N/c1nc[nH]c1C(N)=O` reads 0.488 µg/mL (≈ 2.68 µM). As for `CCCCOC(=O)c1ccc(N)cc1`, the IC50 is > 20 µg/mL.

Turning to `CN[C@@H]1C(O[C@H]2O[C@H](CO)[C@@H](N)[C@H](O)[C@H]2O)O[C@H]2C[C@@H](N)[C@@H](O[C@H]3[C@H](O)[C@@H](O)[C@H](N)C[C@@H]3N)OC2[C@@H]1O` (some centres undefined), the IC50 stood at 2.38 µg/mL (≈ 4.41 µM). The CC50 is the concentration that lowers cell viability or growth by half. In the case of `O=C1NCN(c2ccccc2)C12CCN(CCCC(c1ccc(F)cc1)c1ccc(F)cc1)CC2`, the CC50 was > 6 µg/mL and the IC50 came to 2 µg/mL (≈ 4.21 µM).

Regarding `CCCC(C)(COC(N)=O)COC(=O)NC(C)C` (centres undefined), the IC50 was > 20 µg/mL. With `C[C@H]1[C@H](C)CC[C@]2(C(=O)O[C@@H]3O[C@H](COC4O[C@H](CO)[C@@H](OC5O[C@@H](C)[C@H](O)[C@@H](O)[C@H]5O)[C@H](O)[C@H]4O)[C@@H](O)[C@H](O)[C@H]3O)CC[C@]3(C)C(=CC[C@@H]4[C@@]5(C)C[C@@H](O)[C@H](O)[C@@](C)(CO)C5CC[C@]43C)[C@H]12` (some centres undefined), the half-maximal inhibitory concentration (IC50) is > 20 µg/mL. As to `CCC1(C)CC(=O)NC(=O)C1`, the half-inhibitory concentration (IC50) is > 20 µg/mL. Regarding `C[C@@]12C(=O)OC(=O)[C@]1(C)[C@H]1CC[C@@H]2O1`, the CC50 was 4.5 µg/mL (≈ 23 µM) and the half-inhibitory concentration (IC50) was > 20 µg/mL.

Take `NS(=O)(=O)c1cc(C(=O)O)c(NCc2ccco2)cc1Cl`: the IC50 was > 20 µg/mL.

`Cc1cc(C2CCCCC2)n(O)c(=O)c1`: the CC50 came out at 0.409 µg/mL (≈ 1.97 µM) and the 50% inhibitory concentration (IC50) is > 20 µg/mL. As for `NC(=O)c1ncn([C@@H]2O[C@H](CO)[C@@H](O)[C@H]2O)n1`, the IC50 was > 20 µg/mL. On the same count and under the same terms, the result for `CCOc1ccc2c(c1)C(C)=CC(C)(C)N2` reads > 10 µg/mL.

Regarding `CC(C)COCC(CN(Cc1ccccc1)c1ccccc1)N1CCCC1` (centres undefined), the 50% cytotoxic concentration (CC50) is > 6 µg/mL and the IC50 stood at 6.21 µg/mL (≈ 16.9 µM). Take `CCCCNC(=O)NS(=O)(=O)c1ccc(C)cc1`: the IC50 is > 20 µg/mL. For the compound `CC(=O)[C@H]1CC[C@H]2[C@@H]3C[C@H](C)C4=CC(=O)CC[C@]4(C)[C@H]3[C@@H](O)C[C@]12C`, the half-inhibitory concentration (IC50) was > 20 µg/mL.

With `CC(=O)[C@H]1CC[C@H]2[C@@H]3CC[C@H]4C[C@H](O)CC[C@]4(C)[C@H]3C(=O)C[C@]12C`, the half-inhibitory concentration (IC50) is > 20 µg/mL. Take `OCc1cc(C(O)CNCCCCCCOCCCCc2ccccc2)ccc1O` (centres undefined): the IC50 was > 20 µg/mL. Consider `Cc1nc2n(c(=O)c1CCN1CCC(c3noc4cc(F)ccc34)CC1)CCCC2`, for which the IC50 is > 20 µg/mL. On to `CCS(=O)(=O)CCn1c([N+](=O)[O-])cnc1C`, for which the half-inhibitory concentration (IC50) was > 20 µg/mL.

Take `COc1ccc2cc([C@@H](C)C(=O)O)ccc2c1`: the half-maximal inhibitory concentration (IC50) was > 20 µg/mL.

In the case of `CC(C)NCC(O)COc1cccc2ccccc12` (centres undefined), the IC50 is > 20 µg/mL. On the same count and under the same terms, then `CC1(C)NC(=O)N(c2ccc([N+](=O)[O-])c(C(F)(F)F)c2)C1=O`, with > 20 µg/mL; and `Cc1cccc(CN2CCN(C(c3ccccc3)c3ccc(Cl)cc3)CC2)c1` (centres undefined), with 6.56 µg/mL (≈ 16.8 µM); and `CCOC(=O)C1=C[C@]2(CC)CCCN3CCc4c(n1c1ccccc41)[C@@H]32`, with > 20 µg/mL.

In the case of `C[C@]12CC[C@@H]3c4ccc(O)cc4CC[C@H]3[C@@H]1CCC2=O`, the IC50 was > 20 µg/mL. Consider `c1ccc2[nH]c(-c3cscn3)nc2c1`, for which the IC50 is > 20 µg/mL.

As for `CN1[C@@H](CC(=O)c2ccccc2)CCC[C@H]1C[C@H](O)c1ccccc1`, the IC50 is > 20 µg/mL.

On to `C=C1C[C@]23C[C@@]1(O)CC[C@H]2[C@@]12C=C[C@H](O)[C@@](C)(C(=O)O1)[C@H]2[C@@H]3C(=O)O`, for which the IC50 is > 20 µg/mL.

Regarding `CC(=O)NC1CCSC1=O` (centres undefined), the IC50 was > 20 µg/mL. On the same count and under the same terms, then `CN(C)CCCO[C@@H]1[C@H]2OC(C)(C)O[C@H]2O[C@@H]1[C@H](O)CO`, with > 20 µg/mL; and `CCc1cccc2c3c([nH]c12)C(CC)(CC(=O)O)OCC3` (centres undefined), with > 20 µg/mL; and `CC[N+](CC)(CC)CCC(O)(c1ccccc1)C1CCCCC1` (centres undefined), with > 20 µg/mL.

Regarding `CO/N=C(\C(=O)N[C@@H]1C(=O)N2C(C(=O)O)=C(C[N+]3(C)CCCC3)CS[C@H]12)c1csc(N)n1`, the IC50 was > 20 µg/mL. Turning to `CN1C(=O)CCS(=O)(=O)C1c1ccc(Cl)cc1` (centres undefined), the IC50 is > 20 µg/mL. Turning to `C=CC1=C(C(=O)O)N2C(=O)[C@@H](NC(=O)/C(=N\OCC(=O)O)c3csc(N)n3)[C@H]2SC1`, the IC50 is > 20 µg/mL.

`CN/C(=C/[N+](=O)[O-])NCCSCc1csc(CN(C)C)n1`: the half-inhibitory concentration (IC50) is > 20 µg/mL. Same read-out and setting: the result for `Cc1ccccc1N1C(=O)c2cc(S(N)(=O)=O)c(Cl)cc2NC1C` (centres undefined) reads > 20 µg/mL; that for `c1ccc2c(c1)CCCc1cc(NCCN3CCOCC3)nnc1-2`, > 20 µg/mL. As for `Nc1cc(-c2ccncc2)c[nH]c1=O`, the CC50 was > 6 µg/mL and the half-maximal inhibitory concentration (IC50) was > 20 µg/mL. As for `Nc1c(Br)cc(Br)cc1CNC1CCC(O)CC1` (centres undefined), the IC50 is > 20 µg/mL. Take `CN(C)CCOC(=O)COc1ccc(Cl)cc1`: the half-inhibitory concentration (IC50) was > 20 µg/mL. On to `c1ccc2c3c([nH]c2c1)[C@H]1C2CCC([C@@H]4CCCN[C@H]24)N1CC3` (some centres undefined), for which the IC50 was > 20 µg/mL. Still for that read-out and setting: then `Cc1cn([C@H]2C[C@@H](N=[N+]=[N-])[C@@H](CO)O2)c(=O)[nH]c1=O`, with > 20 µg/mL; and `OC(CCN1CCCCC1)(c1ccccc1)C1CCCCC1` (centres undefined), with > 20 µg/mL; and `N[C@@H](C(=O)N[C@@H]1C(=O)N2C(C(=O)O)=C(Cl)CS[C@H]12)c1ccccc1`, with > 20 µg/mL and 1.93 µg/mL. Regarding `CC(C)NC[C@H](O)c1ccc(O)c(O)c1`, the IC50 was > 20 µg/mL. The same measure, in the same setting: then `CC(Oc1ccccc1)C(=O)N[C@@H]1C(=O)N2[C@@H]1SC(C)(C)[C@@H]2C(=O)O` (some centres undefined), with > 20 µg/mL.

On to `N[C@H]1C[C@@H]1c1ccccc1`, for which the IC50 is > 20 µg/mL. Turning to `Cn1c([N+](=O)[O-])cnc1COC(N)=O`, the half-maximal inhibitory concentration (IC50) is > 20 µg/mL.

Values taken from PubChem BioAssay AID1332 (Southern Research Institute, 2008).
